According to the supplement of paper PMC4683952:
This is one part of the list. Rule as the data show it: active = 2 or more and inactive = the rest. Repeats in this data set agree poorly, so a single value says little.

System: Lgr5 (MarsCy1-Lgr5-EGFP, U2OS)
Test: cell-surface Lgr5 expression (SCi1 fluorescence, background-subtracted) relative to WT DMSO (fold of DMSO control); higher = more Lgr5 at the plasma membrane
Settings: U2OS MarsCy1-Lgr5-EGFP stable; treatment time: overnight; library: ActiProbe-5K (TimTec); 25 µM

cell-surface Lgr5 expression, inactive:
CCN(CC)C(=O)CN1C(=O)C(=O)c2cc(Br)ccc21 1.23
O=C(O)c1cc[n+](CCS(=O)(=O)[O-])cc1 1.13
CCOc1cccc2c1NC(C)(C)c1ssc(=S)c1-2 1.19
C=CCn1cc(Cl)cc/c1=N\C=C(C#N)C#N 0.942
c1ccc(CSc2nc3ccccc3s2)nc1 1.05
CC1CNC(C)(C)C(=O)C1 (stereo unspecified) 1.11
N#CC1=C(N)OC2=C(C(=O)CCC2)C1c1ccco1 (stereo unspecified) 1.13
Fc1ccc(-n2cccc2)cc1Cl 0.985
Brc1ncnc2[nH]cnc12 1.32
O=C1CC(n2nnc3ccccc32)C2COC1O2 (stereo unspecified) 1.23
Oc1ccc2ccccc2c1/N=N\c1ccccc1 1.22
CC(CC(=O)O)n1ccnc1 (stereo unspecified) 1.39
O=C(O)[C@@H]1CSC(c2coc3ccccc3c2=O)N1 (stereo partly specified) 1.44
C#CCOC(C)n1cccc1-c1cccs1 (stereo unspecified) 1.06
OC1(C#CCN2CCCC2)CCCCC1 1.38
N#Cc1cc(C#N)c(SC2C=CCCC2)nc1N (stereo unspecified) 0.533
Sc1nnc(-c2ccccc2)n1/N=C\c1cccc2ccccc12 0.981
O=[N+]([O-])c1cc(Sc2ccc(Cl)cc2)c2c(C3OCCO3)noc2c1 1.18
Sc1nc2cccc(Cl)c2o1 1.51
C=CCn1c(NCCN(CC)CC)nc2c1c(=O)[nH]c(=O)n2C 1.24
O=[N+]([O-])c1cnn(CSc2nc3ncccn3n2)c1 0.946
CC1Cn2c(nnc2C23CC4CC(CC(C4)C2)C3)S1 (stereo unspecified) 1.2
O=C(CSCCO)Nc1nccs1 1.14
Clc1ccc(-c2nnc(NC3=NCCC3)o2)cc1 0.913
O=C1NC(=S)S/C1=C\c1ccco1 1.2
COC(=O)Nc1nccs1 1.01
Cc1cc(N2CCN(C3=NCC(C)(C)S3)CC2)n2c(nc3ccccc32)c1C#N 0.867
COc1cc(OC)c(-c2nn3c(C4CCCCC4)nnc3s2)cc1OC 1.65
COc1ccc2c(c1)C1OCCC1C(c1ccncc1)N2 (stereo unspecified) 1.52
O=C(NC1CC1)c1ccc(=O)[nH]c1 0.895
COc1ccc(OC)c(C2=Nn3c(nnc3-c3ccccn3)SC2)c1 1.01
CC(=O)SC[C@@H](C)C(=O)N1CCC[C@H]1C(=O)O 1.27
N#Cc1cnc2c(C(N)=O)cnn2c1N 0.99
O=S(=O)(Nc1ccc(S(=O)(=O)Nc2nccs2)cc1)c1ccc2c(c1)OCCO2 1.62
CCOc1ccc2c(c1)-c1c(sn(-c3ccc(OC)cc3)c1=S)C(C)(C)N2 0.684
COc1cc(Cn2ccnc2)c(OC)cc1Cn1ccnc1 1.14
O=C1C2C(C(=O)N1c1ccc([N+](=O)[O-])cc1)C1C=CC2C12CC2 (stereo unspecified) 1.33
CCCCC(CC)C(=O)NCC1CCCO1 (stereo unspecified) 1.15
COc1ccc(C2=NN=C3COc4ccc(Cl)cc4N3C2)cc1 1.32
O=[N+]([O-])c1ccc(/N=C\c2cc(Br)cc(Br)c2O)c(O)c1 0.64
Cc1csc(NC(=O)NC(C)(C)C)n1 1.31
O=c1c2c3c(sc2nc2n1CCC2)CCCC3 1.37
CCSc1ncc(C#N)c(N)n1 1.13
CCCC(C)NS(=O)(=O)c1c(C)cc(C)cc1C (stereo unspecified) 1.04
O=c1nc2ccccn2c2ccc([N+](=O)[O-])cc12 0.81
CN1C(=O)C(=O)c2cc(Br)ccc21 1.13
Clc1cc(/N=C\c2ccc(Br)s2)ccc1Br 1.08
O=C1/C(=C\N2CCN(c3ccc(F)cc3)CC2)SC(=S)N1c1ccc(F)cc1 1.54
COC(=O)c1c(O)cc(=O)[nH]c1N 1.07
O=C1OC2(OC=C(c3ccccc3)C2=O)c2ccccc21 (stereo unspecified) 1.36
S=c1n(Cn2nnn(-c3ccccc3)c2=S)nnn1-c1ccccc1 1.6
O=C(O)CSCc1ccco1 1.33
CC(C)(C)OC(=O)N1CCCC(CN)C1 (stereo unspecified) 1.11
Clc1c(-c2nnc(-c3cccs3)o2)sc2ccccc12 0.913
O=C(O)c1ccc(Br)s1 1.01
c1ccc2[nH]c(CCSc3nc4ccccc4[nH]3)nc2c1 1.27
CN(C)/C=C(/C=O)n1cc([N+](=O)[O-])cn1 1.16
CCc1ccc(C(C2C(=O)CC(C)(C)CC2=O)C2C(=O)CC(C)(C)CC2=O)s1 1.02
O=S(=O)(c1ccc2oc3ccccc3c2c1)N1CCCc2ccccc21 0.759
COC(=O)c1c(N2C(=N)SCC2=O)sc2c1CCCC2 0.975
Cc1c2cc(O)c(=O)cc-2oc2cc(O)c(O)cc12 0.823
CN(C)c1cc(N2CCOCC2)nc(C#N)n1 1.16
O.O=S(=O)([O-])c1cc(O)c(O)c(S(=O)(=O)[O-])c1.[Na+].[Na+] 1.06
O=[N+]([O-])[C-]([N+](=O)[O-])[S+](c1ccccc1)c1ccccc1 1.05
Brc1ccc(-c2nc(-c3cccnc3)no2)cc1 0.881
Clc1n[nH]c2ccccc12 0.881
C=CCOc1nc(N2CCCCC2)nc(N2CCOCC2)n1 1.04
CCCOC(=O)CCNc1n[nH]c(=O)[nH]c1=O 1.27
O=C(O)COCCC12CC3CC(CC(C3)C1)C2 1.28
O=C(CSc1nc2ccccc2s1)C1CC1 0.854
O=C(OCCCl)Oc1c(Cl)cc2oc(=O)sc2c1Br 1.32

2 records drawn at random from those above, as already listed:
cell-surface Lgr5 expression, inactive:
O=C(O)c1cc[n+](CCS(=O)(=O)[O-])cc1 1.13
c1ccc2[nH]c(CCSc3nc4ccccc4[nH]3)nc2c1 1.27

Gathered by group, the compounds so far with a tert-butyl group
cell-surface Lgr5 expression, inactive:
Cc1csc(NC(=O)NC(C)(C)C)n1 1.31
CC(C)(C)OC(=O)N1CCCC(CN)C1 (stereo unspecified) 1.11
